Reference: PubChem BioAssay AID652272 (Drosophila RNAi Screening Center, 2013)

Assay: 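Finding fly genes that regulate Hedgehog signal transduction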 (primary screen)
System: Drosophila clone 8 (Cl8) cells
Knock-down reagent: long dsRNA against Drosophila genes
Detection: 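Plate reader light from a firefly reporter under a ptc promoter fragment that responds to Hedgehog, with Renilla light as transfection reference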
Scale: firefly Hh reporter signal: higher = more ptc reporter light; Renilla reference signal: higher = more Renilla control light
Active means: 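Hit when the z-score averaged over two replicates is under -2 or over +3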
Calls: active = hit: reporter lowered or raised; inactive = not a hit
The deposit covers about 21,000 reagents; this is an unselected part of those that have a named target and a result. In the full data, 503 (2.4%) are marked active. 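Raw plate light values, not normalised; calls rest on replicate z-scores that were not deposited; hits include reporter decreases as well as increases.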 Unmarked entries are inactive. Reagents against one gene are numbered here. Names joined by + are all predicted targets of the reagent. Not given: the amount of reagent, the time to read-out.

gene knocked down | reagent no. | firefly Hh reporter signal, replicate 1 | firefly Hh reporter signal, replicate 2 | firefly Hh reporter signal, replicate 3 | Renilla reference signal, replicate 1 | Renilla reference signal, replicate 2
CG15464 (retired record) (GeneID 31436) | 1 | 1.09e5 | 5.59e5 | 3.08e5 | 3853 | 3821
CG11068 (GeneID 32357) | 1 | 56321 | 2.00e5 | – | 1750 | 7833
CG14829 (GeneID 38792) | 1 | 97920 | 65785 | – | 10698 | 4864
CG43187 (GeneID 12798317) | 1 | 1.95e5 | 3.46e5 | – | 5825 | 17380
CG9008 (GeneID 34779) | 1 | 64306 | 43047 | – | 2882 | 2242
Cpr76Bc (GeneID 40122) | 1 | 1.60e5 | 1.51e5 | – | 5797 | 3516
TwdlR (GeneID 318586) | 1 | 96955 | 1.00e5 | – | 2672 | 3224
CG13454 (GeneID 39676) | 1 | 5.44e5 | 80724 | – | 3576 | 3576
CG11159 (GeneID 37341) | 1 | 97138 | 38359 | – | 3292 | 3515
srp (GeneID 41944) | 1 | 54432 | 1.97e5 | – | 11607 | 3095
srp (GeneID 41944) | 2 | 68113 | 56425 | – | 1000 | 3992
CG15822 (GeneID 38273) | 1 | 74170 | 43306 | – | 1849 | 3772
CG15822 (GeneID 38273) | 2 | 64826 | 37344 | – | 1883 | 3140
Spn43Ab (GeneID 45040) | 1 | 83501 | 45387 | – | 1865 | 3361
Unc-115a (GeneID 261629) | 1 | 2.13e5 | – | – | 4861 | –
TfIIA-S-2 (GeneID 31048) | 1 | 86155 | 2.53e5 | – | 2016 | 9974
Atf-2 + veg (retired record) | 1 | 1.19e5 | 79768 | – | 5129 | 1544
Atf-2 + veg (retired record) | 2 | 6.57e5 | 82220 | – | 3862 | 3862
lt (GeneID 3355130) | 1 | 81669 | 49591 | – | 2390 | 4681
CG2540 (GeneID 32216) | 1 | 1.37e5 | 95284 | – | 3412 | 2413
Coq8 (GeneID 32239) | 1 | 52688 | 2.25e5 | – | 1564 | 8304
Tbc1d15-17 (GeneID 33184) | 1 | 1.25e5 | 39840 | – | 5096 | 2632
ect (GeneID 44135) | 1 | 57120 | 80081 | 7.46e5 | 6508 | 4320
ect (GeneID 44135) | 2 | 50348 | 72809 | 44771 | 5904 | 2604
Ttc19 (GeneID 35172) | 1 | 61190 | 35397 | – | 1824 | 3794
CG5934 (GeneID 43289) | 1 | 85303 | 1.09e5 | – | 2827 | 3403
Mal-B1 (GeneID 34597) | 1 | 1.38e5 | 60874 | – | 1888 | 5169
c12.1 (GeneID 53435) | 1 | 57098 | 1.37e5 | – | 977 | 7024
ppk14 (GeneID 33887) | 1 | 1.74e5 | 56835 | – | 4469 | 5088
Dhit (GeneID 37037) | 1 | 1.33e5 | 1.03e5 | – | 4898 | 4242
ND-B17.2 (GeneID 33443) | 1 | 1.41e5 | 1.08e5 | – | 3208 | 2697
Dap160 (GeneID 35378) | 1 | 1.49e5 | 1.95e5 | – | 3560 | 9500
Dap160 (GeneID 35378) | 2 | 62723 | 86020 | – | 2792 | 3115
Gr59f (GeneID 37726) | 1 | 67684 | 52220 | – | 1784 | 3781
CG31816 (GeneID 318960) | 1 | 1.15e5 | 2.70e5 | – | 2976 | 11489
Sgt (GeneID 35052) | 1 | 73513 | 35403 | – | 3065 | 1165
Argp (GeneID 261628) | 1 | 93572 | 1.24e5 | – | 3204 | 3370
CG14269 (GeneID 31312) | 1 | 66344 | 1.86e5 | – | 1824 | 7718
CG15514 (GeneID 43531) | 1 | 1.26e5 | 66466 | – | 3232 | 2380
Gapdh1 (GeneID 35728) | 1 | 68768 | 42929 | – | 1645 | 3831
CG15549 (GeneID 43665) | 1 | 1.13e5 | 1.47e5 | – | 3604 | 3874
CG13786 (GeneID 34006) | 1 | 1.61e5 | 60292 | – | 3972 | 5036
CG9664 (GeneID 33540) | 1 | 89945 | 88604 | – | 4349 | 4326
Lim1 (GeneID 31813) | 1 | 1.14e5 | 1.16e5 | – | 2813 | 2765
Lim1 (GeneID 31813) | 2 | 1.44e5 | 7.09e5 | 4.61e5 | 2938 | 7144
CG9304 (GeneID 37500) | 1 | 94714 | 50420 | – | 2188 | 4107
CG13308 (GeneID 39011) | 1 | 64953 | 70472 | – | 7419 | 4547
CG1998 (GeneID 32300) | 1 | 95408 | 3.61e5 | – | 1636 | 14557
CG7460 (GeneID 39973) | 1 | 94592 | – | – | 2489 | 2792
Ssdp (GeneID 42177) | 1 | 5.80e5 | 62429 | – | 28583 | 1552
VhaM9.7-c (GeneID 38503) | 1 | 1.05e5 | 54343 | – | 4402 | 2214
REPTOR-BP (GeneID 34371) | 1 | 1.41e5 | 80056 | – | 3633 | 6554
CG12942 (GeneID 36158) | 1 | 58152 | 59032 | – | 2283 | 2141
CG10395 (GeneID 35490) | 1 | 1.28e5 | 1.00e5 | – | 4096 | 2967
CG34326 (retired record) (GeneID 5740223) | 1 | 7.49e5 | 2.22e5 | – | 43392 | 4118
CG18577 (GeneID 41337) | 1 | 60338 | 85664 | – | 2459 | 2593
ex (GeneID 33218) | 1 | 97664 | 60578 | – | 4172 | 2394
